Results are given in words; binding and its absence hold for the method and conditions named. In cells and extracts the contact can be indirect. These calls come from enrichment with a bait or labelling near it, and not all partners need be listed.

The chains behind the UniProt entries cited, without tags or fusion partners. Residues count along the entry.
UniProt P01137, residues 279-390: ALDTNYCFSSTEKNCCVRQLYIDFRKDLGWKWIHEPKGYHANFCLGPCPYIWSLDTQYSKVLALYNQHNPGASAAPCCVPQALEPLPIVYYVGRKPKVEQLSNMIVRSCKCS
UniProt Q92783: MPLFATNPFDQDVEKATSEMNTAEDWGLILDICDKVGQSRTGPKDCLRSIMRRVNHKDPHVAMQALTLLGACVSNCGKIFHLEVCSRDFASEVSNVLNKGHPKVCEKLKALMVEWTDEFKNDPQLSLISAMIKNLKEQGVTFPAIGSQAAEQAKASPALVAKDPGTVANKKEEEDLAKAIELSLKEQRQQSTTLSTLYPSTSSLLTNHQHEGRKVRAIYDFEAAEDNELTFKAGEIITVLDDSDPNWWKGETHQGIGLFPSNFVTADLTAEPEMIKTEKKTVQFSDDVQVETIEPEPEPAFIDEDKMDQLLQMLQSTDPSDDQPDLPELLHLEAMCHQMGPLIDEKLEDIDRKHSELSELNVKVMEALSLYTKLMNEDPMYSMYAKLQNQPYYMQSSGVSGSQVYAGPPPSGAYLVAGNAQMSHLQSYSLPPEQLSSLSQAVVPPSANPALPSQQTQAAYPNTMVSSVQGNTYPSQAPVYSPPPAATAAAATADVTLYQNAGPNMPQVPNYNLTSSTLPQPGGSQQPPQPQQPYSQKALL
UniProt P04406: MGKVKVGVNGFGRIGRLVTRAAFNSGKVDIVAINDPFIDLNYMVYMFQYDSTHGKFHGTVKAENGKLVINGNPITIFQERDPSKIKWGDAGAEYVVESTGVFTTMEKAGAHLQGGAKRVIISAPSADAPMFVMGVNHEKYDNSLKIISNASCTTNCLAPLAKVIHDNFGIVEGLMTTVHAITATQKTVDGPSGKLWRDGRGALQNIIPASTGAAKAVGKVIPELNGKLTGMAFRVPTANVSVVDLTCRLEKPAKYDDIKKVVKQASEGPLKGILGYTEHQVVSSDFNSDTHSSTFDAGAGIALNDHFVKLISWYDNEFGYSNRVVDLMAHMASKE

The assay addresses TurboID-DR6 (UniProt O75509). Briefly: proximity labelling.
In the case of “transforming growth factor β1 (TGFB1) (from UniProt P01137 279-390)”, the binding entry is recorded as “binds”. The value for “signal-transducing adapter molecule (STAM) (from UniProt Q92783 1-540)” was “binds”; that for “glyceraldehyde 3-phosphate dehydrogenase (GAPDH) (from UniProt P04406 1-335)” was “binds”.
